Laboratory results taken from patent US8022102B2, “Unsaturated tetracyclic tetrahydrofuran derivatives” (Janssen Pharmaceutica, NV, priority 2004, dated 2011).
pIC50: −log10 of the molar value.

Amino acid sequences for entries named in this document (tags omitted). Residues count along the entry.
UniProt Q9WTR4, 1-597: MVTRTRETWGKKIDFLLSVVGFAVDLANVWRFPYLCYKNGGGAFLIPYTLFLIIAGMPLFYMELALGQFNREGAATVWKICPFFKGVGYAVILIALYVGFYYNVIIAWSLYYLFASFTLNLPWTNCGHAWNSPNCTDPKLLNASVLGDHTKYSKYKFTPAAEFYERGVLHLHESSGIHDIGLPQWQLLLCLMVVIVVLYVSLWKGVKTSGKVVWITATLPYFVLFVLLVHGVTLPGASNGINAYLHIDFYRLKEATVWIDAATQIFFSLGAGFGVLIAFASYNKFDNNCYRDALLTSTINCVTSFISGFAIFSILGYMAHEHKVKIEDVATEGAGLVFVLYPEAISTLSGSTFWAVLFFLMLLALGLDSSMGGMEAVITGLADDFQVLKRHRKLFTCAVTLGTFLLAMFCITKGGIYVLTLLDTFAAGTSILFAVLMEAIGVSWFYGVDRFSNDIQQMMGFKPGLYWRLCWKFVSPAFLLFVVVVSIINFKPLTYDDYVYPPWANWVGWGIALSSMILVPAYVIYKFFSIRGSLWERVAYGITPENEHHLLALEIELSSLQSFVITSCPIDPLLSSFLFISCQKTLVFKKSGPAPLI

Biological target: T1, NET (Rattus norvegicus, UniProt Q9WTR4)
T1 construct: Cortex from rat brain was collected and homogenised; from tissue; host or cells: rat brain cortex
Test: In vitro determination of NET reuptake inhibition ([3H]Nixosetine binding, rat brain cortex)
Method: Cortex from rat brain was collected and homogenised using an Ultra-Turrax T25 and a Dual homogeniser in ice-cold homogenising buffer containing Tris, NaCl and KCl (50 mM, 120 mM and 5 mM, respectively, pH 7.4) prior to dilution to an appropriate protein concentration optimised for specific and non-specific binding. […] Membrane-bound activity was detected by filtration through a Packard Filtermate harvester onto GF/B Unifilterplates, washed with ice-cold Tris-HCl buffer, containing NaCl and KCl (50 mM, 120 mM and 4 mM; pH 7.4; 6×0.5 ml). Filters were allowed to dry for 24 h before adding scintillation fluid. Scintillation fluid was allowed to saturate filters for 24 h before counting in a Topcount scintillation counter. Percentage specific bound and competition binding curves were calculated using S-Plus software (Insightful).

`CN(CC(=O)N(C)C)C[C@H]1CC2=C(O1)c1cc(F)ccc1Cc1ccccc12` [Compound 117] was tested, and the pIC50 was 6.10.
